# Assay results as given in PubChem BioAssay AID2685 (National Center for Advancing Translational Sciences (NCATS), 2010).
# Some of the results follow. The main result of the screen is listed elsewhere. These columns were measured beside it and carry no call. Compounds called inactive in the main read-out are mostly missing here. The note in brackets gives the kind of curve behind each potency; many fits are weak.
# Test: qHTS Assay for Lipid Storage Modulators in Drosophila S3 Cells;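 for cell number change: cells counted by Cell Tracker Red CMTPX staining in the red channel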
# Settings: BODIPY lipid droplet fluorescence, 18-24 h; for cell number change: measured here: cell count max response, cells fed with added oleic acid
# Procedure, shortened: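 Drosophila S3 cells got compounds at several concentrations plus oleic acid (400 uM solution). Laser-scanning cytometry with 488 nm excitation read lipid droplets at 500-530 nm and cells at 575-640 nm. Percent activity was relative to 20 uM Triacsin C.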
# [1] = measured here: cell number channel AC50, cells fed with added oleic acid
# [2] = measured here: lipid fluorescence (Fed channel) AC50, cells fed with added oleic acid
smiles,measurement,setting,value
Cc1ccc(-c2cc(C(=O)Nc3cccnc3)c3ccccc3n2)s1,cell number change,,48.4%
same,AC50,[1],"17800 nM [rising, partial curve]"
COc1cc(OC)nc(Oc2ccc(N)c(C)c2)n1,cell number change,,-18%
same,AC50,[2],"65.1 nM [falling, full curve, poor fit]"
CCOC(=O)c1sc(NC(=O)c2ccc(S(=O)(=O)N(C)C)cc2)nc1C,AC50,[2],"326 nM [rising, full curve]"
Cc1cc(C)c(C)c(OCC(O)CN2CCN(c3ccccn3)CC2)c1 (stereo not given),cell number change,,5.67%
same,AC50,[2],"920 nM [rising, partial curve]"
O=C(CCn1c(=O)c2sccc2n(CC(=O)NCc2ccco2)c1=O)NCc1ccccc1,AC50,[1],"1460 nM [rising, partial curve]"
same,AC50,[2],"6510 nM [rising, single point]"
c1ccc(-n2nnnc2OCCOc2nnnn2-c2ccccc2)cc1,cell number change,,8.29%
same,AC50,[2],"146 nM [rising, full curve, poor fit]"
COc1ccccc1CN1CCC(n2nccc2NC(=O)CCOc2ccccc2)CC1,cell number change,,31.3%
same,AC50,[1],"20600 nM [rising, single point]"
same,AC50,[2],"13000 nM [rising, partial curve]"
CSc1ccc(CN(C)C(=O)COc2ccc(C(=O)c3ccccc3)cc2)cc1,cell number change,,3.85%
CCOc1ccccc1-c1nc(CN(Cc2cnn(C)c2)C(C)C)c(C)o1,cell number change,,-13.2%
same,AC50,[1],"517 nM [falling, full curve, poor fit]"
CC(=O)NC1CC2CCCC(C1)N2S(=O)(=O)c1cccc(F)c1 (stereo not given),cell number change,,4.13%
COc1ccc(CN2CC(C(=O)NCCc3ccc(Cl)cc3)CC2=O)cc1 (stereo not given),cell number change,,6.73%
O=C(Nc1ccc(NC(=O)c2sc3ccccc3c2Cl)cc1Cl)c1ccco1,AC50,[2],"25900 nM [falling, partial curve]"
Cc1occc1-c1nnc(SCC(=O)c2c(N)n(C3CC3)c(=O)[nH]c2=O)n1C,cell number change,,14.6%
same,AC50,[1],"411 nM [rising, single point]"
CC12CC3(C)CC(C)(C1)CC(C(=O)NCc1ccccn1)(C2)C3,cell number change,,-47.5%
CN(C)c1ccc(C=NCC2COc3ccccc3O2)cc1 (stereo not given),cell number change,,5.01%
same,AC50,[2],"10300 nM [rising, single point]"
COc1ccccc1NC(=O)CCSc1nnc(-c2ccc(O)cc2)o1,AC50,[2],"2310 nM [falling, partial curve]"
COc1cccc(-c2nnc(NC(=O)c3cccs3)s2)c1,cell number change,,9.54%
same,AC50,[2],"3660 nM [rising, full curve]"
CC(=O)c1cccc(N(C(=O)CNC(=O)c2cccs2)C(C(=O)NCC2CCCO2)c2ccccc2)c1 (stereo not given),cell number change,,12.4%
same,AC50,[2],"29100 nM [falling, single point]"

# 2 records drawn at random from the list so far, as already listed:
smiles,measurement,setting,value
CCOC(=O)c1sc(NC(=O)c2ccc(S(=O)(=O)N(C)C)cc2)nc1C,AC50,[2],"326 nM [rising, full curve]"
O=C(Nc1ccc(NC(=O)c2sc3ccccc3c2Cl)cc1Cl)c1ccco1,AC50,[2],"25900 nM [falling, partial curve]"
